The supplement of paper PMC11237882
The list shows a part of the results. Values are worked out from sequencing counts and are noisy.

Molecular target: T1, Homer1 EVH1 domain
T1 chain: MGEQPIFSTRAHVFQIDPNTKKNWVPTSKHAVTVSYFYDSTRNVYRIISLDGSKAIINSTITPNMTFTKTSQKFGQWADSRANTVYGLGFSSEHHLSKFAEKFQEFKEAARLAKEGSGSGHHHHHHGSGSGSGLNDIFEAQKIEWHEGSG
Assay: enrichment score (AUC of log2 frequency ratio across FACS sorting rounds) (log2 AUC); higher = stronger enrichment for Homer1 EVH1 binding

Binder	enrichment score
SYGALKGDGILIVVNTVGAALQTLYILAYLHYCPRK	2.21
ENGWLKAVQVLMVLSLILYCLSFILFMFQLYTMRRG	3.97
YLTILPEGLFMLSLCLVPTFAVSCLLLGLDLRSGLH	3.64
FASDRDTYLWIGYLCAILLFTAALIQSFCLQCYFQL	2.72
QVIIRERYRDNDSDLALGMLAGAATGMALGSLFWVF	0.915
MELCRSLALLGGSLGLMFCLIALSTDFWFEAVGPTH	1.62
PEVARFGYFSAALLAPHLIGEFLTLVLLGIVQNPNI	1.42
FGVIATIAFLMINAVSNGQVRGDSYSEGCLGQTGAH	2.7
FINPTSFSLHVLSKINIFYYSVLLLTLYTVLGPWFF	2.11
SNKQKPVMGPPLRGRGKGRGRIRSEDEEDLGNARPS	-2.02
TLAGALFLHQRRKYRSNKGESPVEPAEPCRYSCPRE	1.26
MSSSETLPSGNLFGLLIIFYSAIIGGKILQLIRIPI	1.67
